Experimental data: PubChem BioAssay AID2551 (National Center for Advancing Translational Sciences (NCATS), 2010)
Out of some 310,000 compounds screened, about 17,000 (5.5%) were called active. Inconclusive means that the source gave no clear call. Such entries were picked first, then a sample of the others. The call rests on the fitted dose curve; in most records, active means well fitted inhibition curve with a large enough effect; inconclusive means small, poorly fitted or top-dose-only effect, or effect the other way; inactive means no such curve, though single readings can be large or run the other way. A potency beside an inconclusive call is a rough fit, not a confirmed value.

By UniProt entry, the sequences of proteins in these tests, tags left out. Where a name states a change or a piece, a line headed by the entry shows the natural chain unless it says otherwise.
UniProt P51450: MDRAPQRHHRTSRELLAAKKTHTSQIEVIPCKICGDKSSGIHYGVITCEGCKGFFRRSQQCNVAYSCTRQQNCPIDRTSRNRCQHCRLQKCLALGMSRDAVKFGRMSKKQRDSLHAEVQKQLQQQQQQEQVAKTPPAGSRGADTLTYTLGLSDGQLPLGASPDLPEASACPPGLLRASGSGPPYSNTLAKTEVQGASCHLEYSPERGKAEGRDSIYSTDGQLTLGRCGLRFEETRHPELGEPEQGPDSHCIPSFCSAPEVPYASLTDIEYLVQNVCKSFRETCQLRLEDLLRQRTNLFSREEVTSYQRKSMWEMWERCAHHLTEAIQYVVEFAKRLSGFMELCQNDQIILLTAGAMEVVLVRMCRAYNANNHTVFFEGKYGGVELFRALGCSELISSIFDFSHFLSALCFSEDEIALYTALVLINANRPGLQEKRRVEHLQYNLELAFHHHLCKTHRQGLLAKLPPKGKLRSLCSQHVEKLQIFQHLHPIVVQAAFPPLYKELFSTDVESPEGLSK

The compounds below were run against Nuclear receptor ROR-gamma (Mus musculus) (UniProt P51450) (assay: qHTS for inhibitors of ROR gamma transcriptional activity). Settings: Drosophila S2 Gal4-RORgamma UAS-luciferase reporter, 20 h; activity change, negative = inhibition: at 53.6 µM (top of the series).
Procedure, shortened: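 ROR gamma transcriptional activity was tracked as Gal4-UAS luciferase output in stably transfected Drosophila Schneider cells, with compound added 1 hr before 700 uM copper sulfate induction and a 20 hr ambient-temperature incubation.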
Further: nearly all actives have a fitted effect of over 60% in size.
On the % scale 0 is the no-effect control and ±100 the full control effect; potency means the concentration at half of the fitted maximal effect.

Row | Structure (SMILES) | activity change, negative = inhibition | Potency
1 | COc1ccc(N(C(=O)c2ccco2)C(C(=O)NC2CCCC2)c2cccs2)cc1OC (configuration not stated) | inactive: -8.07% | 
2 | COc1ccc(CNc2ccnc(-c3cccnc3)n2)c(OC)c1 |  | inconclusive: 17.8 µM [activator, single point]
3 | COc1ccc(Cc2nc(=S)[nH][nH]2)cc1Br |  | active: 7.94 µM
4 | CCCc1cc(C(=O)NC2CCCN(Cc3ccccc3F)C2)no1 (configuration not stated) |  | inconclusive: 17.8 µM [activator, single point]
5 | O=S(=O)(Nc1nc2ccccc2nc1N1CCN(c2ccccn2)CC1)c1ccc(Cl)cc1 |  | inconclusive: 28.2 µM [activator, single point]
6 | Cc1ccc(C(NC(=O)N2CCOCC2)C(Cl)Cl)cc1F (configuration not stated) |  | inconclusive: 15.8 µM [activator, single point]
7 | O=C(Nc1nc(-c2ccc3ccccc3c2)cs1)C1CCN(S(=O)(=O)c2cccs2)CC1 |  | inconclusive: 7.08 µM [activator, partial curve]
8 | O=C(O)Cc1sc(NCc2ccco2)nc1-c1ccccc1 | inactive: -16.6% | 
9 | CCc1ccc(-c2nc(CN3CCC(C(=O)NCc4ccccc4OC)CC3)c(C)o2)cc1 |  | inconclusive: 35.5 µM [inhibitor, single point]
10 | C=C(C)CNC(=O)CCc1nnc(C2(c3ccc(Cl)cc3)CCC2)o1 |  | inconclusive: 35.5 µM [activator, single point]
11 | O=C(c1ccccc1)N1N=C(C(F)(F)F)CC1(O)c1ccccc1 (configuration not stated) | inactive: -24.1% [at 1.91 µM] | 
12 | CCOC(=O)c1c(C)[nH]c(C)c1S(=O)(=O)NCc1ccc(OCC)cc1 | inactive: -18.7% | 
13 | C=CCSc1nnc(NC(=O)CSc2nnc(C)s2)s1 |  | inconclusive: 35.5 µM [activator, single point]
14 | Cc1cccc2c1-c1sc(C(=O)N3CCc4ccccc4C3)cc1CO2 |  | inconclusive: 22.4 µM [inhibitor, single point]
15 | COc1ccc(NC(=O)N2CCCC(c3nc(-c4ccc(C(C)C)cc4)no3)C2)cc1 (configuration not stated) |  | inconclusive: 35.5 µM [activator, single point]
16 | CCCN(C(=O)CCNC(=O)Cn1cnc2ccccc2c1=O)c1cccc(C)c1 |  | inconclusive: 35.5 µM [activator, single point]
17 | COC(=O)c1ccc(CSc2ccc3nnc(-c4ccccn4)n3n2)o1 |  | active: 11.2 µM
18 | COc1cc(/C=C/C(=O)c2c(O)cc(C)oc2=O)ccc1O |  | inconclusive: 35.5 µM [inhibitor, single point]
19 | CC(C)(C)NC(=O)c1ccc2c(c1)C1C3CCC(C3)C1C(c1ccccc1)N2 (configuration not stated) |  | inconclusive: 2.82 µM [activator, single point]

Structures listed so far containing a furan ring, fused or not (three):
Row | Structure (SMILES) | activity change, negative = inhibition | Potency
1 | COc1ccc(N(C(=O)c2ccco2)C(C(=O)NC2CCCC2)c2cccs2)cc1OC (configuration not stated) | inactive: -8.07% | 
8 | O=C(O)Cc1sc(NCc2ccco2)nc1-c1ccccc1 | inactive: -16.6% | 
17 | COC(=O)c1ccc(CSc2ccc3nnc(-c4ccccn4)n3n2)o1 |  | active: 11.2 µM

Later entries:

Row | Structure (SMILES) | activity change, negative = inhibition | Potency
20 | O=C(CSc1nnc(Cc2ccsc2)o1)c1ccccc1 |  | inconclusive: 7.94 µM [activator, partial curve]
21 | Clc1ccc(-c2csc(N/N=C\c3cccnc3)n2)cc1 | inactive: -5.02% | 
22 | Cc1ccc2nc(-c3ccc(NC(=O)CN4CCN(C(=O)c5ccco5)CC4)cc3)sc2c1 |  | inconclusive: 2.24 µM [inhibitor, full curve]
23 | COc1ccc(-c2n[nH]c(C)c2-c2ccc(Cl)cc2)c(O)c1 |  | active: 3.98 µM
24 | CC(Oc1ccc(C(=O)c2ccccc2)cc1)C(=O)Nc1ccc(S(N)(=O)=O)cc1 (configuration not stated) |  | inconclusive: 22.4 µM [activator, partial curve]
25 | O=C1CC(c2ccccc2)CC(O)=C1C=Nc1cccc(Cl)c1 (configuration not stated) | inactive: 27% | 
26 | Fc1ccccc1NC(=S)NCCc1ccccc1 |  | active: 6.31 µM
27 | O=C(Nc1ccc2ccccc2c1)c1ccc(Br)o1 |  | inconclusive: 35.5 µM [inhibitor, single point]
28 | O=C(Nc1ccc(F)cc1)N1CCN(C/C=C/c2ccccc2)CC1 |  | inconclusive: 35.5 µM [activator, single point]
29 | Oc1cccc(Nc2nc(N3CCOCC3)nc(N3CCOCC3)n2)c1 |  | inconclusive: 2.51 µM [activator, full curve]
30 | Cc1cc(C)c2sc(NC(=O)c3ccc([N+](=O)[O-])o3)nc2c1 |  | active: 5.01 µM
31 | O=Cc1cn(CCOc2ccccc2)c2ccccc12 |  | inconclusive: 25.1 µM [activator, single point]
32 | CC(C)C1Cc2c(sc3ncnc(NN)c23)CO1 (configuration not stated) |  | inconclusive: 35.5 µM [inhibitor, single point]
33 | O=C(Nc1cccc(C(F)(F)F)c1)C12CC3CC(CC(C3)C1)C2 |  | inconclusive: 22.4 µM [activator, single point]
34 | CCN(CC)CCCN(c1ccccc1)C1Cc2ccccc2C1 | inactive: -41.6% | 
35 | C/C(CC(=O)Nc1ccc(C)c(Cl)c1)=N\NC(=O)Cc1ccccc1 |  | inconclusive: 25.1 µM [inhibitor, single point]
36 | CCOc1cc(C(=O)NCCN2C(=O)S/C(=C\c3cccnc3)C2=O)cc(OCC)c1OCC | inactive: 17.7% | 
37 | Cc1ccc([N+](=O)[O-])cc1NC(=O)CN(C(=O)c1ccccc1Cl)C1CCCCC1 |  | inconclusive: 12.6 µM [activator, partial curve, poor fit]
